Measurements: publication PMC6683576

Molecular target: nucleotide-binding domain (NBD) of Hsc70
Assay: co-IP; truncated mutants of GKN2 and Hsc70 tagged with myc and HA

binding: binds
B1: GKN2 as used in the co-immunoprecipitation of the truncated mutants (protein, UniProt Q86XP6 21-184)
chain: YEVFNIISPSNNGGNVQETVTIDNEKNTAIINIHAGSCSSTTIFDYKHGYIASRVLSRRACFILKMDHQNIPPLNNLQWYIYEKQALDNMFSSKYTWVKYNPLESLIKDVDWFLLGSPIEKLCKHIPLYKGEVVENTHNVGAGGCAKAGLLGILGISICADIHV

Results are given in words; binding and its absence hold for the method and conditions named. Binding seen in cells or lysates may run through a third protein. Binding can be weak; no strength is given.
